Consider two sequences from PMC9697525.

By UniProt entry, the sequences of proteins in these tests, tags left out. Where a name states a change or a piece, a line headed by the entry shows the natural chain unless it says otherwise. Residues count along the entry.
UniProt P05067: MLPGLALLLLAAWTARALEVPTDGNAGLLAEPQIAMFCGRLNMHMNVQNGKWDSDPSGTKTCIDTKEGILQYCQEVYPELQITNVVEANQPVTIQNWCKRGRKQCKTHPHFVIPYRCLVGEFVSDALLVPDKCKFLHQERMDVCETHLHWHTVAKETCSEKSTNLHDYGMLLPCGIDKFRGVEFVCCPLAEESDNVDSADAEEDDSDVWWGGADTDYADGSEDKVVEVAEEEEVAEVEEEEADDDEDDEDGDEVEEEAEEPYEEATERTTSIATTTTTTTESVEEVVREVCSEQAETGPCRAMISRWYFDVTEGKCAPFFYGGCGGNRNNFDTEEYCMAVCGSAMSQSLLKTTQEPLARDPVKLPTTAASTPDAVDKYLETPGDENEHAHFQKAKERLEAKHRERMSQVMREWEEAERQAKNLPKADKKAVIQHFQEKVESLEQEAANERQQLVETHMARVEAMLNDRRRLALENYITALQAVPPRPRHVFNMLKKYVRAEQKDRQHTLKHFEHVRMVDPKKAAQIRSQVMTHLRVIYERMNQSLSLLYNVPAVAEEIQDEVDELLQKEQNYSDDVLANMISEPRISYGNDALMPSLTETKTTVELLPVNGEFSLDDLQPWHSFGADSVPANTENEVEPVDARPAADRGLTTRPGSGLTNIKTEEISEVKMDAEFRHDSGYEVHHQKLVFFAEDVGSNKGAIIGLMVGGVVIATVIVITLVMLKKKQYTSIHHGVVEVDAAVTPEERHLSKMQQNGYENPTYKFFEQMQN
UniProt P02769, 25-607: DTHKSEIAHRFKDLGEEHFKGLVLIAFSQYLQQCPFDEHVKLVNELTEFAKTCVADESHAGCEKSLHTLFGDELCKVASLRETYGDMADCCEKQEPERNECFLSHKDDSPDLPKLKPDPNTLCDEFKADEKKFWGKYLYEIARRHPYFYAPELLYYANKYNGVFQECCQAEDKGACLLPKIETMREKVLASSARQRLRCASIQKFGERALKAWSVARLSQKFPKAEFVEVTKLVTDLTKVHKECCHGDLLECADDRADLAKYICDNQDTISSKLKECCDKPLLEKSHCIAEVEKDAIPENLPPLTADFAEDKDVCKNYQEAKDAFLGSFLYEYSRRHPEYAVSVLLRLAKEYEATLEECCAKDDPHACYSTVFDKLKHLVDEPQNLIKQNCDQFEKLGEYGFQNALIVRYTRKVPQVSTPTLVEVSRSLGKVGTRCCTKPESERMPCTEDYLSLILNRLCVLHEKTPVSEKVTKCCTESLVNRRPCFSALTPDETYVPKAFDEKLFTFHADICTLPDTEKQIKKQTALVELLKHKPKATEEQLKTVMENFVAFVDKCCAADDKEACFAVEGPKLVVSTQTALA
UniProt P10636: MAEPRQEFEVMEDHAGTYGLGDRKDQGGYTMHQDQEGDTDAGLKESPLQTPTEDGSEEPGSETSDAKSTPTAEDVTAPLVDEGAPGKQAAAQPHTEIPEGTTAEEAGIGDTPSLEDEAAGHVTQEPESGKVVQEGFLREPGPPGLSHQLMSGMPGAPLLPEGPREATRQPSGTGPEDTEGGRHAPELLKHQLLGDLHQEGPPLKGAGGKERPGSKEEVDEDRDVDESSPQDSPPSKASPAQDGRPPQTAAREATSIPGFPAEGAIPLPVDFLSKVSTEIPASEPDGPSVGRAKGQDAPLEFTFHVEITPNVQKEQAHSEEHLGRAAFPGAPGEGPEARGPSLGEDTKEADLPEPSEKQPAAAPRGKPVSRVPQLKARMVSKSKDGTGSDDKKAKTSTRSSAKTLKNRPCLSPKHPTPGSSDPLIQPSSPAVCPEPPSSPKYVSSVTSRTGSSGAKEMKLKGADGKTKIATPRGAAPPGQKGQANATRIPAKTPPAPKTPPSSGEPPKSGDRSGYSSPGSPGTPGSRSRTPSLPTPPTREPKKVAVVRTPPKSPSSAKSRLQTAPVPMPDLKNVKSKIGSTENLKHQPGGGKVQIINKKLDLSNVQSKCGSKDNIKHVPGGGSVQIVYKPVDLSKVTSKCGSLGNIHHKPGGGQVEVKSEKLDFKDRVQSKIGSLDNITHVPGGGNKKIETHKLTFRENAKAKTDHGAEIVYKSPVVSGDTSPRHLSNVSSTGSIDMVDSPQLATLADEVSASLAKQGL

For some assays here: No signal at the amounts used counts as a negative. For some assays here: Construct, isoform or probe ends are uncertain for at least one entry.

Holding throughout (experiment): FRET fluorescence recovery (displacement from Au NRs@PDA)
For series [1], the target named is amyloid-beta fibril (AbF) (UniProt P05067). The following applies: 20 nM AbF, no obvious recovery, 5'-HS-(CH2)6, QD-aptamer conjugates (in deionized water) with 0.5 mg/mL Au NRs@PDA stock (55 uL to 20 uL), 30 min quench, then 120 min with protein at room temperature, commercial protein, residues 672-711, single-stranded DNA.
Series [2] deals with bovine serum albumin (BSA) (bovine) (UniProt P02769). Conditions: 20 nM BSA, no obvious recovery; 5'-HS-(CH2)6; QD-aptamer conjugates (in deionized water) with 0.5 mg/mL Au NRs@PDA stock (55 uL to 20 uL), 30 min quench, then 120 min with protein at room temperature; commercial protein; label: QDs625 (CdSe/CdS/ZnS) via 5' thiol; single-stranded DNA.
The target of series [3] is amyloid-beta monomer (AbM) (UniProt P05067). The following applies: 20 nM AbM, no obvious recovery; 5'-HS-(CH2)6; QD-aptamer conjugates (in deionized water) with 0.5 mg/mL Au NRs@PDA stock (55 uL to 20 uL), 30 min quench, then 120 min with protein at room temperature; commercial protein; residues 672-711; label: QDs625 (CdSe/CdS/ZnS) via 5' thiol; single-stranded DNA.
Series [4] deals with tau protein (human) (UniProt P10636). Conditions: Au NRs@PDA quencher, LOD 20 pM (not a Kd); 5'-HS-(CH2)6; QD-aptamer conjugates (in deionized water) with 0.5 mg/mL Au NRs@PDA stock (55 uL to 20 uL), 30 min quench, then 120 min with protein at room temperature; commercial protein; label: QDs665 (CdSe/CdS/ZnS) via 5' thiol; single-stranded DNA.

As for GCCTGTGTTGGGGCGGGTGCG [AbO aptamer], the binding result in series [1] (label: QDs625 (CdSe/CdS/ZnS) via 5' thiol), in series [2] and in series [3] was “no binding” in each case.
Turning to GCGGAGCGTGGCAGG [tau aptamer], the results for the binding result in series [4] and in series [1] (label: QDs665 (CdSe/CdS/ZnS) via 5' thiol) were “binds” and “no binding”, respectively.
